Assay results: patent US6852907
No constants are given. Whether binding was seen depends on the method and setting. Some binding calls cover weakened binding; strength is not graded here.

Sequences of proteins named here, by UniProt entry; tags and fusion partners are left off. Residues count along the entry.
UniProt P61823, residues 47-150: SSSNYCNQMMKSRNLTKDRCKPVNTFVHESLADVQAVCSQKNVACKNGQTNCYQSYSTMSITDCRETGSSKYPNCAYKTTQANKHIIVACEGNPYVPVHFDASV

Target: CP66:6G:g5 protein tagged with Stag epitope (tomato leaf curl virus from New Delhi; E. coli phage M13)
Assay: fluorescence staining of fixed protoplasts

“S-protein coupled to FITC (from UniProt P61823 47-150)” was tested, and the binding was “binds”.
